# Laboratory results taken from the supplement of paper PMC7125110.
# ± gives the standard error. Many entries were measured with a wide error.
# B1: glmS ribozyme (parent)
# chain: AUAAAAGCGCCAGAACUACAGAAAUGUAGUUGACGAGGAGGAGGUUUAUCGAAUUUUCGGCGGAUGCCUCCAAA
# Variants of: B1
# Test: self-cleavage kobs at 640 uM GlcN6P; higher = faster cleavage; RNA array
# Conditions: with glucosamine-6-phosphate
# How it was run: (§1)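 kcat and KM were obtained from weighted Michaelis–Menten fits across concentrations of kobs values. Those came from one- or two-exponential decay fits to per-tile medians normalised to baseline and to non-cleaving reference variants. The variants were barcoded ribozymes transcribed in situ by E. coli RNA polymerase on sequenced MiSeq chips and tracked through a hybridised Cy3 probe at 37 °C, with 40 μM to 10 mM glucosamine-6-phosphate in HEPES/KCl/Mg(OAc)2 buffer flowed in.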
row,Variant,self-cleavage kobs at 640 uM GlcN6P
1,C11U A15C G51U C70A,0.000208 ± 0.00012 s⁻¹
2,C11U U31C C61A,3.04e-05 ± 2.1e-05 s⁻¹
3,A12C A14U U30A,2.53e-05 ± 1.9e-05 s⁻¹
4,A12C A33U,< 1e-05 s⁻¹
5,A12C C50A C68G,3.72e-05 ± 2.7e-05 s⁻¹
6,A12C G13U C67A,4.27e-05 ± 2.6e-05 s⁻¹
7,A12C U30A U31G G38U C67G,2.82e-05 ± 2.4e-05 s⁻¹
8,A12C U31C U54A C67A,2.93e-05 ± 2.1e-05 s⁻¹
9,A12C U46C C70A,2.6e-05 ± 1.7e-05 s⁻¹
10,A12C U55A C58A,2.08e-05 ± 1.3e-05 s⁻¹
11,A12C U55G G66U C67U,6.08e-05 ± 3.1e-05 s⁻¹
12,A12G A14U G66A,1.85e-05 ± 1.2e-05 s⁻¹
13,A12G A39U U47G,3.46e-05 ± 2e-05 s⁻¹
14,A12G C16U A53C,3.05e-05 ± 1.9e-05 s⁻¹
15,A12G C34U C58U C68G,4e-05 ± 3.3e-05 s⁻¹
16,A12G C50G G62C C70G,0.000179 ± 9.2e-05 s⁻¹
17,A12G C67G C71G,3.35e-05 ± 3.1e-05 s⁻¹
18,A12G C68A,0.00025 ± 0.00015 s⁻¹
19,A12G G32A C67G C68U,7.48e-05 ± 3.9e-05 s⁻¹
20,A12G G37A,2.06e-05 ± 1.6e-05 s⁻¹
21,A12G U31A U45A,1.63e-05 ± 1.4e-05 s⁻¹
22,A12G U45A C70G,3.28e-05 ± 1.8e-05 s⁻¹
23,A12U A15G G43A,3.96e-05 ± 2.6e-05 s⁻¹
24,A12U A64G C67G,1.35e-05 ± 1.3e-05 s⁻¹
25,A12U G37C,1.58e-05 ± 7.9e-06 s⁻¹

# Quoted at random: 2 records from the list
row,Variant,self-cleavage kobs at 640 uM GlcN6P
9,A12C U46C C70A,2.6e-05 ± 1.7e-05 s⁻¹
22,A12G U45A C70G,3.28e-05 ± 1.8e-05 s⁻¹

# Continued:

row,Variant,self-cleavage kobs at 640 uM GlcN6P
1,A12U U69G C70G,4.76e-05 ± 2.4e-05 s⁻¹
2,G13A A39C,2.89e-05 ± 1.6e-05 s⁻¹
3,G13A A39G,0.00012 ± 6.3e-05 s⁻¹
4,G13A C50A U69A,4.05e-05 ± 2.9e-05 s⁻¹
5,G13A G29A C70G,3.72e-05 ± 1.9e-05 s⁻¹
6,G13A G32U A39U,2.19e-05 ± 1.3e-05 s⁻¹
7,G13A G40C,2.12e-05 ± 1.9e-05 s⁻¹
8,G13A U47A C71G,4.23e-05 ± 2.2e-05 s⁻¹
9,G13A U54G C68A,3.17e-05 ± 2.5e-05 s⁻¹
10,G13A U55G C71G,2.43e-05 ± 2.2e-05 s⁻¹
11,G13A U69A,2.13e-05 ± 1.5e-05 s⁻¹
12,G13C A14G U46A,2.92e-05 ± 2.1e-05 s⁻¹
13,G13C A33G C67A U69A,6.79e-05 ± 3.4e-05 s⁻¹
14,G13C C16G U69A C70G,2.63e-05 ± 2.4e-05 s⁻¹
15,G13C G41U C70U,5.96e-05 ± 4.2e-05 s⁻¹
16,G13C U54C,3.5e-05 ± 1.8e-05 s⁻¹
17,G13C U56A,2.39e-05 ± 1.7e-05 s⁻¹
18,G13U A52G,2.37e-05 ± 1.5e-05 s⁻¹
19,G13U C58U,3.53e-05 ± 2e-05 s⁻¹
20,G13U G29U U31C G32A,5.15e-05 ± 2.7e-05 s⁻¹
21,G13U U45A A52G,2.06e-05 ± 2e-05 s⁻¹
22,G13U U45G,1.34e-05 ± 1.2e-05 s⁻¹
23,G13U U46G A52C C67U C70G,3.86e-05 ± 2.5e-05 s⁻¹
24,G13U U49C C50A G59A C70G,2.75e-05 ± 2e-05 s⁻¹
25,G13U U55G C67A,3.1e-05 ± 1.8e-05 s⁻¹

row,Variant,self-cleavage kobs at 640 uM GlcN6P
1,G13U U65G C67G,3.07e-05 ± 2.5e-05 s⁻¹
2,G13U U69A,2.6e-05 ± 1.3e-05 s⁻¹
3,A14C A36G U69A,3.39e-05 ± 2.2e-05 s⁻¹
4,A14C C16G C58U,2.97e-05 ± 2.7e-05 s⁻¹
5,A14C C58U,2.35e-05 ± 2.1e-05 s⁻¹
6,A14C G66C,2.17e-05 ± 1.8e-05 s⁻¹
7,A14G A36U C68G,3.1e-05 ± 2.6e-05 s⁻¹
8,A14G A36U U56A C67A C70G,2.95e-05 ± 2.7e-05 s⁻¹
9,A14G A52U A53G,2.78e-05 ± 1.7e-05 s⁻¹
10,A14G A53C U65C C70U,2.61e-05 ± 2.6e-05 s⁻¹
11,A14G U31C C71A,0.00136 ± 0.00071 s⁻¹
12,A14U A15U C16U,3.77e-05 ± 2.1e-05 s⁻¹
13,A14U A48C,2.27e-05 ± 1.5e-05 s⁻¹
14,A14U C50G G60C,3.7e-05 ± 3e-05 s⁻¹
15,A14U G32C C71A,3.83e-05 ± 3.5e-05 s⁻¹
16,A14U G40A U46C,3.93e-05 ± 2.1e-05 s⁻¹
17,A14U G40C G66C,2.4e-05 ± 1.3e-05 s⁻¹
18,A14U U30C G32A C58U,5.62e-05 ± 3e-05 s⁻¹
19,A14U U54A U56A C68A,2.85e-05 ± 2.6e-05 s⁻¹
20,A14U U55A U69A,2.84e-05 ± 1.5e-05 s⁻¹
21,A14U U57A,2.12e-05 ± 1.6e-05 s⁻¹
22,A14U U57A G66U C68A,0.000155 ± 0.0001 s⁻¹
23,A14U U69A C70A,4.6e-05 ± 2.4e-05 s⁻¹
24,A14U U69G,0.00177 ± 0.00094 s⁻¹

# Variants of: B1
# Test: self-cleavage kobs at 2500 uM GlcN6P; higher = faster cleavage; RNA array
# Conditions: with glucosamine-6-phosphate
# How it was run: as §1
row,Variant,self-cleavage kobs at 2500 uM GlcN6P
1,C11U U31C C61A,3.3e-05 ± 2.7e-05 s⁻¹
2,A12C A14U U30A,1.86e-05 ± 1.4e-05 s⁻¹
3,A12C C50A C68G,3.9e-05 ± 2.3e-05 s⁻¹
4,A12C U55G G66U C67U,5.07e-05 ± 4.2e-05 s⁻¹
5,A12G C34U C58U C68G,2.8e-05 ± 2.7e-05 s⁻¹
6,A12G C50G G62C C70G,0.000266 ± 0.00017 s⁻¹
7,A12G G32A C67G C68U,0.00102 ± 0.00067 s⁻¹
8,G13A A39G,0.000578 ± 0.00032 s⁻¹
9,G13C G41U C70U,3.77e-05 ± 2e-05 s⁻¹
10,G13U C58U,1.29e-05 ± 1.2e-05 s⁻¹
11,G13U U46G A52C C67U C70G,2.61e-05 ± 2.6e-05 s⁻¹
12,A14C C16G C58U,2.25e-05 ± 1.6e-05 s⁻¹
13,A14C C58U,1.38e-05 ± 1.2e-05 s⁻¹
14,A14G A36U C68G,3.11e-05 ± 2.7e-05 s⁻¹

# An excerpt taken from the entries so far, as a working copy:
row,Variant,self-cleavage kobs at 2500 uM GlcN6P
2,A12C A14U U30A,1.86e-05 ± 1.4e-05 s⁻¹
3,A12C C50A C68G,3.9e-05 ± 2.3e-05 s⁻¹
4,A12C U55G G66U C67U,5.07e-05 ± 4.2e-05 s⁻¹
5,A12G C34U C58U C68G,2.8e-05 ± 2.7e-05 s⁻¹
6,A12G C50G G62C C70G,0.000266 ± 0.00017 s⁻¹
7,A12G G32A C67G C68U,0.00102 ± 0.00067 s⁻¹
8,G13A A39G,0.000578 ± 0.00032 s⁻¹

# Variants of: B1
# Test: self-cleavage kobs at 10000 uM GlcN6P; higher = faster cleavage; RNA array
# Conditions: with glucosamine-6-phosphate
# How it was run: as §1
row,Variant,self-cleavage kobs at 10000 uM GlcN6P
1,A12C G13U C67A,2.3e-05 ± 1.2e-05 s⁻¹
2,A12G C34U C58U C68G,3.22e-05 ± 2.5e-05 s⁻¹
3,G13A U47A C71G,2.7e-05 ± 1.7e-05 s⁻¹
4,G13A U69A,1.99e-05 ± 1.2e-05 s⁻¹
5,G13C G41U C70U,3.96e-05 ± 2e-05 s⁻¹

# Variants of: B1
# Test: self-cleavage kobs at 160 uM GlcN6P; higher = faster cleavage; RNA array
# Conditions: with glucosamine-6-phosphate
# How it was run: as §1
row,Variant,self-cleavage kobs at 160 uM GlcN6P
1,A12C U31C U54A C67A,2.14e-05 ± 1.8e-05 s⁻¹
2,G13U U49C C50A G59A C70G,2.57e-05 ± 2.2e-05 s⁻¹
3,A14G A36U C68G,2.15e-05 ± 2.1e-05 s⁻¹
